Test results reported in paper doi:10.1101/2024.05.31.596776.

The chains behind the UniProt entries cited, without tags or fusion partners.
UniProt Q96CV9: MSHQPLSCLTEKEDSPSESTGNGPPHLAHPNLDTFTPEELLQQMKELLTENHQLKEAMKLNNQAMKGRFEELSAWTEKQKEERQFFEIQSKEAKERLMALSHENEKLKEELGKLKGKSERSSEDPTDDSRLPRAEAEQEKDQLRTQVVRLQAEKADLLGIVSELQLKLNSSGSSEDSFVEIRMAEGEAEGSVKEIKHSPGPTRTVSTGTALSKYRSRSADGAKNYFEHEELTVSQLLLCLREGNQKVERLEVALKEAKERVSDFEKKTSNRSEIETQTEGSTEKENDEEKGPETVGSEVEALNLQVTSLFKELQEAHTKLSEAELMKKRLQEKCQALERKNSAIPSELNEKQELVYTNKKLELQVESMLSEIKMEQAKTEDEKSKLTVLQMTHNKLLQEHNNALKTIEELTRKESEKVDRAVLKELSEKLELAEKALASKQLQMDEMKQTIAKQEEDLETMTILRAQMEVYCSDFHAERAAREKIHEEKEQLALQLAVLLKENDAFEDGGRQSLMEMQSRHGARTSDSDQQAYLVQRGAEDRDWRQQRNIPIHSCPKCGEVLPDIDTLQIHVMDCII
UniProt O75381: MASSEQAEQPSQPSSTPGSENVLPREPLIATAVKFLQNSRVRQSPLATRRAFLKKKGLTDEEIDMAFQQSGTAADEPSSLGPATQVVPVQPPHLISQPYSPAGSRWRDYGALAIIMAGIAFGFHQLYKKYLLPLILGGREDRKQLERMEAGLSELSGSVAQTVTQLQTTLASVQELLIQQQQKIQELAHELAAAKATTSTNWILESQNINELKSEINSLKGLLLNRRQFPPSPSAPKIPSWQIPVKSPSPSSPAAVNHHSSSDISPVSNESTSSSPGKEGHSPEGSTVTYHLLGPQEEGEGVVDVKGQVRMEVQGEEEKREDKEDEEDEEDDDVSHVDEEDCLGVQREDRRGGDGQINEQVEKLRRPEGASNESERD
UniProt Q9UHD2: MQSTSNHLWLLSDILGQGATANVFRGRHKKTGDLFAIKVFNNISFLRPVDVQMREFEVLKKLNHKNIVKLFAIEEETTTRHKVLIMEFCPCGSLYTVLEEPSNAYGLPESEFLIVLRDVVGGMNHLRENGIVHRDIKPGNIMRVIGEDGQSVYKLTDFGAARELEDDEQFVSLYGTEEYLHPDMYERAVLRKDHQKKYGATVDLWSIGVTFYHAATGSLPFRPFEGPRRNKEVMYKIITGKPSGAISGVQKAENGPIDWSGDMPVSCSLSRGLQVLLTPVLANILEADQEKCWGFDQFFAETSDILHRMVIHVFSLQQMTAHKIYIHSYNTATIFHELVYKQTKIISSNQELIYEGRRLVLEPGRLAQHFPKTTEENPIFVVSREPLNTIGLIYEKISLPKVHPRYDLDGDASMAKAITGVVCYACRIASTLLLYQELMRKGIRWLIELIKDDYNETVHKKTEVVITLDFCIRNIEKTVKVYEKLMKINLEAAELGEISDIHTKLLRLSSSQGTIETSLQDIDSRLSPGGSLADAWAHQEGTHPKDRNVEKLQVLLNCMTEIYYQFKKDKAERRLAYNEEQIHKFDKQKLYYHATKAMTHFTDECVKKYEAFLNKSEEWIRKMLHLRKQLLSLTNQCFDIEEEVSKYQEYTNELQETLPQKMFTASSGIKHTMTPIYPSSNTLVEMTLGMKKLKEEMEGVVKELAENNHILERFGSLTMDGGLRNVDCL

Biological target: miniTurbo-OPTN_(1-577)-GFP (human) (UniProt Q96CV9)
Test: proximity labelling

Substance	binding
endogenous PEX14 (from UniProt O75381 1-377)	binds
TBK1 (TANK-binding kinase 1) (from UniProt Q9UHD2 1-729)	binds

These are yes or no findings as the source states them, for the method shown. In cells and extracts the contact can be indirect. Here binding means that the protein was enriched with, or labelled near, the bait; the list need not be complete.
